# Reference: the supplement of paper PMC7024190
# Counter-ions that a name gives are not always drawn. This is one part of the list. Repeats in this data set agree poorly, so a single value says little.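 Human embryonic kidney cells were transiently transfected with a plasmid bearing a Renilla luciferase gene under the HSV-TK promoter. This first-round screen tests roughly ten thousand compounds for ones that increase reporter output.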
# Test system: HEK 293FT
# Assay: log relative Renilla luciferase luminescence (reporter expression vs reference, reference not stated) (log (base not stated)); higher = higher recombinant reporter expression
# Conditions: 10 µM; time after transfection 48 h
row,SMILES,log
1,CC[C@H](NC(=O)c1c(C)c(-c2ccccc2)nc2ccccc12)c1ccccc1,-0.044
2,"O=C(O)COc1ccc(OCCNC[C@H](O)COc2ccccc2)cc1 [ICI 215,001 hydrochloride]",0.072
3,CC(C)NCCN(C(C)C)S(=O)(=O)c1ccc(Cl)cc1Cl,-0.111
4,COc1ccc2c(c1)c(CC(=O)N1CCOCC1)c(C)n2C(=O)c1ccc(Cl)cc1,0.0448
5,COc1ccc(CCCOC(Cn2ccnc2)c2ccc(OC)cc2)cc1 (stereo not given),0.0438
6,O=C(/C=C/c1ccc(O)c(O)c1)OCCc1ccccc1 [Caffeic acid phenethyl ester],0.0875
7,Nc1nc2c(cnn2CCc2ccccc2)c2nc(-c3ccco3)nn12,-0.0171
8,C[C@@H]1C[C@H]2[C@@H]3CCC4=CC(=O)C=C[C@]4(C)[C@@]3(F)[C@@H](O)C[C@]2(C)[C@@]1(O)C(=O)CO [Dexamethasone],0.0915
9,Cc1ccc(Sc2cncc3sc(C(N)=O)cc23)cc1,-0.115
10,c1ccc2oc(C3=NCCN3)cc2c1 [2-BFI hydrochloride],0.0628
11,Clc1ccc2nsnc2c1NC1=NCCN1 [Tizanidine hydrochloride],-0.118
12,O=C(O)c1ccc(-c2c[nH]c3ncc(-c4ccccc4)cc23)cc1C1CCCC1,0.0105
13,COc1ccc(C(=O)Nc2sc3c(c2C(N)=O)CCCC3)cc1OC,-0.126
14,O=C1NC(=O)c2c1c(-c1ccccc1)cc1[nH]c3ccc(O)cc3c21,-0.451
15,Cc1cc(C)c(S(=O)(=O)Nc2ccccc2C(F)(F)F)c(C)c1,0.0807
16,COc1c(C)c2c(c(O)c1C/C=C(\C)CCC(=O)O)C(=O)OC2 [Mycophenolic acid],-0.0818
17,COc1cc(C[C@H]2C(=O)OC[C@@H]2Cc2ccc(OC)c(OC)c2)ccc1O [Arctigenin],-1.2
18,Nc1ncnc2nc(-c3ccc(N4CCOCC4)nc3)cc(-c3cccc(Br)c3)c12 [ABT 702 dihydrochloride],-0.104
19,Clc1cccc2c1CN(C1=NCCN1)C2,-0.0785
20,CC(=O)N[C@@H](Cc1c[nH]c2ccccc12)C(=O)OCc1cc(C(F)(F)F)cc(C(F)(F)F)c1,0.0932

# Looked up above:
# `CC(=O)N[C@@H](Cc1c[nH]c2ccccc12)C(=O)OCc1cc(C(F)(F)F)cc(C(F)(F)F)c1` | log: 0.0932
# `O=C1NC(=O)c2c1c(-c1ccccc1)cc1[nH]c3ccc(O)cc3c21` | log: -0.451

# The results go on.

row,SMILES,log
1,NS(=O)(=O)c1cccc2c1c([N+](=O)[O-])cc1nc(O)c(O)nc12 [NBQX disodium salt],0.00743
2,N[C@@H]1CCN(O)C1=O,-0.203
3,c1ccc(C(O[C@@H]2CCCN(CCc3ccc4c(c3)OCO4)C2)c2ccccc2)cc1 [Zamifenacin fumarate],-0.0206
4,Cc1ccccc1C(=O)c1ccc(Nc2ccc(Br)cc2N)cc1Cl,-0.0596
5,Cc1cc(I)ccc1Nc1c(C(=O)NOCC2CC2)cc(F)c(F)c1F,-0.0858
6,CCN(CC)CCCC(C)Nc1nc(C)cc(Nc2ccc3nc(C)cc(N)c3c2)n1 (stereo not given),-0.0288
7,CC(C)C(=O)c1c(C(C)C)nn2ccccc12 [Ibudilast],-0.0145
8,CCc1cc2c(c(CC)n1)CCC(=O)N2Cc1ccc(-c2ccccc2-c2nn[nH]n2)cc1 [ZD 7155 hydrochloride],0.0674
9,Cc1c(C(=O)NN2CCOCC2)nn(-c2ccc(Cl)cc2Cl)c1-c1ccc(I)cc1,-0.0734
10,CC(Oc1ccc(O)cc1)(P(=O)(O)O)P(=O)(O)O,0.088
11,NC[C@@H]1O[C@H](C23CC4CC(CC(C4)C2)C3)Cc2c1ccc(O)c2O,0.0427
12,O=C(Nc1ccc(C(F)(F)F)cn1)N1CCN(c2ncccc2C(F)(F)F)CC1,-0.0637
13,CC[C@H](CO)Nc1nc(Nc2cccc(-c3ccccn3)c2)c2ncn(C(C)C)c2n1 [(R)-DRF053 dihydrochloride],-0.138
14,c1cc2c(cc1C1CCCCC1)c1c3n2CCNC3CCC1 (stereo not given) [Tetrindole mesylate],-0.0709
15,"CCCC(=O)Nc1ncnc2c1ncn2[C@@H]1O[C@@H]2COP(=O)(O)O[C@H]2[C@H]1OC(=O)CCC [Dibutyryl-cAMP, sodium salt]",-0.0785
16,C#CCN1C(C)=C(C(=O)OC)C(c2cccc([N+](=O)[O-])c2)C(C(=O)OCC)=C1C (stereo not given),0.143
17,COC(=O)Nc1ccc2[nH]cc(CCNC(C)=O)c2c1,-0.122
18,CCOC(=O)c1ccc(OC(=O)CCCCCNC(=N)N)cc1 [Gabexate mesylate],0.129
19,CC(C)c1ccc(C(=O)c2cccs2)c(SCCCCCCCCN(C)C)n1,0.182
20,CC(C)NC[C@H](O)COc1cccc2ccccc12 [(S)-(-)-Propranolol hydrochloride],0.0544
